Test results from the supplement of paper PMC6078165.
The reference is the same well before dosing, and untreated signal decays as well.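 Fibroblast labels name human fibroblasts: mostly primary ones from tissues such as uterus (C12385, HUF), lung (H6013), bone (Hs27A), adrenal (HADF) and skin (WS1), plus mammary HMF and breast cancer-associated Hs343T. The cancer cells are basal-like or mesenchymal-like triple-negative breast cancer lines. The paper calls a changed response a hit when it shifts by more than 3x the replicate standard deviation. The tissue of the other fibroblasts is not given here.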

Tested on: MDAMB436
Experiment: relative JC-1 red fluorescence (viability) vs pre-drug, coculture with fibroblast (fraction); higher = more viable cancer cells
Experimental: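 JC-1 labelled TNBC cells cocultured 1:1 (1,500 cells each) with CellTrace Violet stained primary or stromal fibroblasts in 384-well plates in FluoroBrite medium, treated with one of 42 anticancer drugs at 0.1, 1, 10 or 100 uM. JC-1 red fluorescence (mitochondrial integrity in cancer cells only) was read by plate reader every 8 h for 72 h. Values are normalised to each well's pre-drug value. The stock of one drug was tenfold lower, so its dose labels may be too high.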

N.N.[Cl][Pt][Cl] [Cisplatin]
relative JC-1 red fluorescence
Settings | 8 h | 16 h | 24 h | 32 h | 40 h | 48 h | 56 h | 64 h | 72 h
0.1 µM, coculture fibroblast: C12385 | 0.775 | 0.69 | 0.662 | 0.587 | 0.54 | 0.523 | 0.512 | 0.51 | 0.516
0.1 µM, coculture fibroblast: H6013 | 0.815 | 0.78 | 0.78 | 0.776 | 0.768 | 0.804 | 0.766 | 0.759 | 0.718
0.1 µM, coculture fibroblast: H6019 | 0.7086 | 0.651 | 0.63 | 0.554 | 0.517 | 0.5 | 0.463 | 0.433 | 0.411
0.1 µM, coculture fibroblast: H6076 | 0.709 | 0.659 | 0.6664 | 0.624 | 0.621 | 0.599 | 0.62 | 0.614 | 0.612
0.1 µM, coculture fibroblast: H6231 | 0.7288 | 0.6522 | 0.6718 | 0.5958 | 0.592 | 0.5671 | 0.5702 | 0.5497 | 0.542
0.1 µM, coculture fibroblast: HADF | 0.821 | 0.7686 | 0.7584 | 0.73 | 0.732 | 0.751 | 0.697 | 0.694 | 0.652
0.1 µM, coculture fibroblast: HCFa | 0.793 | 0.753 | 0.72 | 0.693 | 0.671 | 0.682 | 0.618 | 0.611 | 0.559
0.1 µM, coculture fibroblast: HCPF | 0.746 | 0.685 | 0.68 | 0.627 | 0.62 | 0.595 | 0.589 | 0.579 | 0.573
0.1 µM, coculture fibroblast: HHSteC | 0.815 | 0.761 | 0.725 | 0.68 | 0.666 | 0.679 | 0.615 | 0.601 | 0.553
0.1 µM, coculture fibroblast: HMF | 0.748 | 0.6838 | 0.661 | 0.611 | 0.599 | 0.57 | 0.5764 | 0.56903 | 0.5637
0.1 µM, coculture fibroblast: HPFa | 0.847 | 0.797 | 0.777 | 0.729 | 0.72 | 0.737 | 0.655 | 0.628 | 0.557
0.1 µM, coculture fibroblast: HUF | 0.812 | 0.711 | 0.701 | 0.623 | 0.574 | 0.555 | 0.54 | 0.531 | 0.531
0.1 µM, coculture fibroblast: Hs5 | 0.77241 | 0.71654 | 0.6957 | 0.643 | 0.629 | 0.59 | 0.598 | 0.575 | 0.573
0.1 µM, coculture fibroblast: Hs27A | 0.786 | 0.71 | 0.702 | 0.679 | 0.654 | 0.71 | 0.625 | 0.612 | 0.545
0.1 µM, coculture fibroblast: Hs343T | 0.751 | 0.657 | 0.617 | 0.574 | 0.538 | 0.513 | 0.501 | 0.49 | 0.483
0.1 µM, coculture fibroblast: WS1 | 0.754 | 0.689 | 0.6794 | 0.605 | 0.566 | 0.558 | 0.544 | 0.527 | 0.525
1 µM, coculture fibroblast: C12385 | 0.769 | 0.7053 | 0.689 | 0.615 | 0.575 | 0.564 | 0.549 | 0.547 | 0.54084
1 µM, coculture fibroblast: H6013 | 0.799 | 0.764 | 0.753 | 0.746 | 0.752 | 0.791 | 0.762 | 0.763 | 0.726
1 µM, coculture fibroblast: H6019 | 0.746 | 0.719 | 0.728 | 0.667 | 0.647 | 0.653 | 0.626 | 0.595 | 0.568
1 µM, coculture fibroblast: H6076 | 0.733 | 0.6808 | 0.695 | 0.663 | 0.6578 | 0.654 | 0.6866 | 0.698 | 0.71
1 µM, coculture fibroblast: H6231 | 0.6771 | 0.649 | 0.713 | 0.635 | 0.628 | 0.617 | 0.625 | 0.616 | 0.605
1 µM, coculture fibroblast: HADF | 0.8 | 0.793 | 0.7824 | 0.764 | 0.78 | 0.824 | 0.768 | 0.769 | 0.726
1 µM, coculture fibroblast: HCFa | 0.767 | 0.721 | 0.683 | 0.649 | 0.637 | 0.66 | 0.599 | 0.586 | 0.542
1 µM, coculture fibroblast: HCPF | 0.739 | 0.712 | 0.7525 | 0.704 | 0.712 | 0.705 | 0.717 | 0.715 | 0.716
1 µM, coculture fibroblast: HHSteC | 0.817 | 0.805 | 0.795 | 0.759 | 0.772 | 0.788 | 0.744 | 0.729 | 0.681
1 µM, coculture fibroblast: HMF | 0.739 | 0.6934 | 0.7097 | 0.66 | 0.648 | 0.621 | 0.627 | 0.627 | 0.618
1 µM, coculture fibroblast: HPFa | 0.872 | 0.881 | 0.879 | 0.854 | 0.861 | 0.89 | 0.811 | 0.793 | 0.724
1 µM, coculture fibroblast: HUF | 0.799 | 0.7236 | 0.7157 | 0.6463 | 0.611 | 0.5993 | 0.583 | 0.584 | 0.578
1 µM, coculture fibroblast: Hs5 | 0.729 | 0.7 | 0.715 | 0.668 | 0.675 | 0.647 | 0.682 | 0.685 | 0.696
1 µM, coculture fibroblast: Hs27A | 0.756 | 0.732 | 0.734 | 0.722 | 0.735 | 0.838 | 0.751 | 0.768 | 0.716
1 µM, coculture fibroblast: Hs343T | 0.71311 | 0.6486 | 0.647 | 0.605 | 0.59039 | 0.57223 | 0.5749 | 0.56928 | 0.5711
1 µM, coculture fibroblast: WS1 | 0.742 | 0.67 | 0.65798 | 0.583 | 0.5476 | 0.5372 | 0.5234 | 0.51 | 0.5044
10 µM, coculture fibroblast: C12385 | 0.785 | 0.7208 | 0.709 | 0.637 | 0.599 | 0.591 | 0.585 | 0.577 | 0.5807
10 µM, coculture fibroblast: H6013 | 0.849 | 0.7856 | 0.7857 | 0.787 | 0.793 | 0.824 | 0.803 | 0.797 | 0.772
10 µM, coculture fibroblast: H6019 | 0.759 | 0.705 | 0.7 | 0.64 | 0.618 | 0.612 | 0.594 | 0.592 | 0.58
10 µM, coculture fibroblast: H6076 | 0.698 | 0.592 | 0.594 | 0.568 | 0.569 | 0.556 | 0.585 | 0.592 | 0.5995
10 µM, coculture fibroblast: H6231 | 0.658 | 0.5672 | 0.597 | 0.5342 | 0.517 | 0.495 | 0.497 | 0.481 | 0.487
10 µM, coculture fibroblast: HADF | 0.813 | 0.788 | 0.78 | 0.756 | 0.7384 | 0.761 | 0.711 | 0.706 | 0.669
10 µM, coculture fibroblast: HCFa | 0.826 | 0.792 | 0.781 | 0.765 | 0.769 | 0.797 | 0.747 | 0.743 | 0.698
10 µM, coculture fibroblast: HCPF | 0.7231 | 0.634 | 0.623 | 0.557 | 0.541 | 0.513 | 0.498 | 0.493 | 0.49
10 µM, coculture fibroblast: HHSteC | 0.8273 | 0.837 | 0.831 | 0.802 | 0.806 | 0.831 | 0.784 | 0.779 | 0.7339
10 µM, coculture fibroblast: HMF | 0.679 | 0.582 | 0.574 | 0.549 | 0.55 | 0.529 | 0.538 | 0.539 | 0.542
10 µM, coculture fibroblast: HPFa | 0.883 | 0.841 | 0.827 | 0.794 | 0.792 | 0.839 | 0.787 | 0.775 | 0.737
10 µM, coculture fibroblast: HUF | 0.822 | 0.744 | 0.73 | 0.666 | 0.62 | 0.603 | 0.593 | 0.594 | 0.587
10 µM, coculture fibroblast: Hs5 | 0.79002 | 0.693 | 0.67 | 0.615 | 0.572 | 0.525 | 0.536 | 0.52 | 0.519
10 µM, coculture fibroblast: Hs27A | 0.827 | 0.8 | 0.805 | 0.805 | 0.798 | 0.885 | 0.814 | 0.824 | 0.7703
10 µM, coculture fibroblast: Hs343T | 0.716 | 0.608 | 0.577 | 0.535 | 0.508 | 0.481 | 0.466 | 0.463 | 0.468
10 µM, coculture fibroblast: WS1 | 0.771 | 0.6934 | 0.6674 | 0.597 | 0.5543 | 0.538 | 0.524 | 0.518 | 0.518
100 µM, coculture fibroblast: C12385 | 0.78 | 0.741 | 0.718 | 0.644 | 0.618 | 0.613 | 0.608 | 0.61 | 0.606
100 µM, coculture fibroblast: H6013 | 0.8363 | 0.828 | 0.814 | 0.791 | 0.796 | 0.822 | 0.785 | 0.78 | 0.739
100 µM, coculture fibroblast: H6019 | 0.779 | 0.737 | 0.7145 | 0.619 | 0.582 | 0.57017 | 0.5496 | 0.5307 | 0.521
100 µM, coculture fibroblast: H6076 | 0.741 | 0.6262 | 0.632 | 0.586 | 0.567 | 0.544 | 0.544 | 0.536 | 0.522
100 µM, coculture fibroblast: H6231 | 0.667 | 0.564 | 0.657 | 0.578 | 0.571 | 0.546 | 0.548 | 0.533 | 0.522
100 µM, coculture fibroblast: HADF | 0.844 | 0.849 | 0.854 | 0.83 | 0.845 | 0.834 | 0.828 | 0.824 | 0.785
100 µM, coculture fibroblast: HCFa | 0.829 | 0.784 | 0.738 | 0.697 | 0.669 | 0.685 | 0.633 | 0.628 | 0.578
100 µM, coculture fibroblast: HCPF | 0.702 | 0.658 | 0.667 | 0.6102 | 0.597 | 0.557 | 0.554 | 0.544 | 0.53
100 µM, coculture fibroblast: HHSteC | 0.85 | 0.887 | 0.881 | 0.838 | 0.847 | 0.859 | 0.812 | 0.797 | 0.753
100 µM, coculture fibroblast: HMF | 0.725 | 0.5982 | 0.608 | 0.57 | 0.552 | 0.518 | 0.515 | 0.499 | 0.484
100 µM, coculture fibroblast: HPFa | 0.841 | 0.799 | 0.775 | 0.739 | 0.75 | 0.786 | 0.732 | 0.73 | 0.697
100 µM, coculture fibroblast: HUF | 0.826 | 0.757 | 0.728 | 0.6494 | 0.602 | 0.588 | 0.576 | 0.57 | 0.568
100 µM, coculture fibroblast: Hs5 | 0.729 | 0.689 | 0.656 | 0.599 | 0.5757 | 0.54 | 0.5472 | 0.527 | 0.519
100 µM, coculture fibroblast: Hs27A | 0.874 | 0.833 | 0.81 | 0.778 | 0.7698 | 0.839 | 0.772 | 0.771 | 0.712
100 µM, coculture fibroblast: Hs343T | 0.668 | 0.621 | 0.627 | 0.579 | 0.576 | 0.55 | 0.555 | 0.558 | 0.565
100 µM, coculture fibroblast: WS1 | 0.7594 | 0.705 | 0.672 | 0.58 | 0.534 | 0.512 | 0.502 | 0.489 | 0.489
